In paper doi:10.1101/2020.07.09.194761:
No constants are given. Whether binding was seen depends on the method and setting. For part of these data: Binding seen in cells or lysates may run through a third protein. Some results given as binding are weak or reduced against the parent protein; the word gives no strength.

Chains of the proteins cited; added tags and fusions are not shown.
UniProt Q96SN8: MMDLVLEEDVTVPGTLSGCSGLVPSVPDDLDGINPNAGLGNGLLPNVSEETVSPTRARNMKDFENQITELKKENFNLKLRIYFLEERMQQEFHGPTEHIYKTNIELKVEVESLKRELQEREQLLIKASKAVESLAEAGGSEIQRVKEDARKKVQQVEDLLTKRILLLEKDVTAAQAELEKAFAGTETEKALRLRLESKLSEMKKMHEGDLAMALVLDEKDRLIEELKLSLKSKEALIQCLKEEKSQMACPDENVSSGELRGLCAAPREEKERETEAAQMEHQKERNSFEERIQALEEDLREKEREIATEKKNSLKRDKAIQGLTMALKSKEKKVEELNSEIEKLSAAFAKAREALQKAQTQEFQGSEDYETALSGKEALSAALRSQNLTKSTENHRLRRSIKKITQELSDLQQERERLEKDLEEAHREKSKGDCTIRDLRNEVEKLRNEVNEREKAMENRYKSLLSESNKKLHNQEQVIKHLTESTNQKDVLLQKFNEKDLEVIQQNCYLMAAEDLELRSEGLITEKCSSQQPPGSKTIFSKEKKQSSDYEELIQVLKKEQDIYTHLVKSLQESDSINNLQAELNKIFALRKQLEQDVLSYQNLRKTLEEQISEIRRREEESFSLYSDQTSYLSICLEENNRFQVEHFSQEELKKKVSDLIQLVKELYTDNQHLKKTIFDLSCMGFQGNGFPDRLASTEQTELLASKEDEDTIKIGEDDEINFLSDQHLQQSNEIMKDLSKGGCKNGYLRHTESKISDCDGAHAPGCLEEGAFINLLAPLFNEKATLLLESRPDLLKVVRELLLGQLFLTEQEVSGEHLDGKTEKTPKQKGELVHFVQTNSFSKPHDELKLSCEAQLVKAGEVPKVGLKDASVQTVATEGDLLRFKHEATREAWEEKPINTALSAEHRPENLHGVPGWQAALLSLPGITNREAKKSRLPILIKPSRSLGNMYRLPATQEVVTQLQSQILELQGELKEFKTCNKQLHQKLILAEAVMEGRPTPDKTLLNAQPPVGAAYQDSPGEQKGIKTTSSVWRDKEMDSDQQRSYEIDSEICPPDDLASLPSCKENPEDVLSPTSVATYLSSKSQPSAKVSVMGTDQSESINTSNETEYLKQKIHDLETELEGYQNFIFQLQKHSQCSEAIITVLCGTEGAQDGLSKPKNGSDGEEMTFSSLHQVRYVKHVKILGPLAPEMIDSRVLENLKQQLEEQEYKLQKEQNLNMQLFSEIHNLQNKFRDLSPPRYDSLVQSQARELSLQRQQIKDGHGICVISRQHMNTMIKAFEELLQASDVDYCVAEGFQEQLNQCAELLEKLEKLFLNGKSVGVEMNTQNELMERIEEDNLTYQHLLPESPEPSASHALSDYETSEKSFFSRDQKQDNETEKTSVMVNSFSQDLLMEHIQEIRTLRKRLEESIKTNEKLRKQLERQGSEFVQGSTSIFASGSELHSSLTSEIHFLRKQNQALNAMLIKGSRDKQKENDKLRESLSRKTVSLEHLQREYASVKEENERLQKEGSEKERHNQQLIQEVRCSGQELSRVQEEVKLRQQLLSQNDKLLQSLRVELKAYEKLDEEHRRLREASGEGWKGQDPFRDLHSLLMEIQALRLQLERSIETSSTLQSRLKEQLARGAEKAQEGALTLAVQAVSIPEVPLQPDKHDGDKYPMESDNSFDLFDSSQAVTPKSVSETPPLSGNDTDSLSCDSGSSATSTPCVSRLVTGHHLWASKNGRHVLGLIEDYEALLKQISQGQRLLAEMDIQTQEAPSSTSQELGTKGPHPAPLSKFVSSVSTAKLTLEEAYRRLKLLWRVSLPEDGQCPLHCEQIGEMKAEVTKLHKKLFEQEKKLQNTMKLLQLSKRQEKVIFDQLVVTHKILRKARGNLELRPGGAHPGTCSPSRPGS
UniProt P49841: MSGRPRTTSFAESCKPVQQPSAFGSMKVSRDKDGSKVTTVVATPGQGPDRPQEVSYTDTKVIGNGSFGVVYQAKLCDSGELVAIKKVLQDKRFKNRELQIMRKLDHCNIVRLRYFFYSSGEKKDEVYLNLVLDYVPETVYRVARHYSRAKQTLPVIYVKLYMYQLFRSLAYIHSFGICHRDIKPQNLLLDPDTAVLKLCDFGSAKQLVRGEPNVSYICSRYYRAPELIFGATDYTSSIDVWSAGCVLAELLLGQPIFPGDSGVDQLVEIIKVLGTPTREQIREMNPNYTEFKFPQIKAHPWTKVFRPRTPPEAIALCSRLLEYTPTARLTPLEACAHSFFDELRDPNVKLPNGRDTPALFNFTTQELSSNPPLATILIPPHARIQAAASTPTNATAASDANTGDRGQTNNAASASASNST

Experiments:
Myc-tagged Cdk5rap2 = Myc-tagged Cdk5rap2 (UniProt Q96SN8); test: co-IP
GST-Cdk5rap2 = GST-Cdk5rap2 (UniProt Q96SN8); test: pull-down
FLAG-tagged GSK3β = FLAG-tagged GSK3β (UniProt P49841); test: co-IP

## FLAG-tagged GSK3β (from UniProt P49841 1-420) (enzyme)
Myc-tagged Cdk5rap2
  binding: binds

## GSK3β protein (14-306) (from UniProt P49841 1-420) (enzyme)
GST-Cdk5rap2
  binding: binds

## Myc-tagged Cdk5rap2 (from UniProt Q96SN8 1-1893)
FLAG-tagged GSK3β
  binding: binds
